Measurements reported in US20150218629.
Numbering of substitutions follows the chain as printed. Construct, isoform or probe ends are uncertain for at least one entry. Tags and fusion partners may be left off the protein sequences shown.

Columns and labels:
[1] = tested on: T1, TrwC Cba Q276C 3.4 kDa PEG homodimer (Citromicrobium bathyomarinum); experiment: activity assay; settings: TT plus 28 iSpC3 spacers at 5' end of SEQ 88; four iSpC3 spacers between SEQ 88 and SEQ 104; MspA nanopore; percent long-dwell controlled movements; 625 mM KCl, 10 mM MgCl2, 5 mM dTTP, +120 mV; purified recombinant protein; single-stranded DNA
T1 sequence: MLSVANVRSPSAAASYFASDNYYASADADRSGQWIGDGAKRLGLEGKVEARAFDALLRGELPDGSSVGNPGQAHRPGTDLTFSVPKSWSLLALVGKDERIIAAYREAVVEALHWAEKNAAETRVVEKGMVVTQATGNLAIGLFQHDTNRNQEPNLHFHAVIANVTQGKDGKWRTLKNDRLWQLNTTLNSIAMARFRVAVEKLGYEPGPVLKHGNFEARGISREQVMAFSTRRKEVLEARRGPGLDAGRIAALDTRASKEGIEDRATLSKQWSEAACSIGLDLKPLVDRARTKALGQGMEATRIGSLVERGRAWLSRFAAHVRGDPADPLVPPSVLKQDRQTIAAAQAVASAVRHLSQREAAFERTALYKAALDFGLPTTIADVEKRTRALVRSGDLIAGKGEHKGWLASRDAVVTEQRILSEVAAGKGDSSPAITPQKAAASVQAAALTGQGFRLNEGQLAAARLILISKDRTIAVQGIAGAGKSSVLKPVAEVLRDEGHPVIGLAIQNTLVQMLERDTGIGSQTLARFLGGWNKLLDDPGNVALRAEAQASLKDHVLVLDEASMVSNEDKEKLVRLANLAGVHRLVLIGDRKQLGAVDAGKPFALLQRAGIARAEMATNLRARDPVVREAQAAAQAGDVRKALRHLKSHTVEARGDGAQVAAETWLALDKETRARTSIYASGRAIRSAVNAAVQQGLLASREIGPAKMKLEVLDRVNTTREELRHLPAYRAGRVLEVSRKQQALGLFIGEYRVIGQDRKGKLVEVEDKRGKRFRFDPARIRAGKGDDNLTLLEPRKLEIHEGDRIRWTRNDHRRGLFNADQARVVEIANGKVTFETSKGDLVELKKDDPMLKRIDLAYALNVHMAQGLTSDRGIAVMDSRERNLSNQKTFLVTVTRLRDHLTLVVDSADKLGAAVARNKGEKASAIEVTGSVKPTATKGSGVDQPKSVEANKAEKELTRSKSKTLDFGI

[2] = tested on: T2, TrwC Cba monomer (Citromicrobium bathyomarinum); experiment: activity assay; settings: TT plus 28 iSpC3 spacers at 5' end of SEQ 88; four iSpC3 spacers between SEQ 88 and SEQ 104; MspA nanopore; percent long-dwell controlled movements; 625 mM KCl, 10 mM MgCl2, 5 mM dTTP, +120 mV; purified recombinant protein; single-stranded DNA
T2 sequence: T1 sequence with C276Q

Sequence: TTTTTTTTTTTTTTTTTTTTTTTTTTTTTTTTTTTTTTTTTTTTTTGGTTGTTTCTGTTGGTGCTGATATTGCGCCATCAGATTGTGTTTGTTAGTCGCTTTTTTTTTTTGGAATTTTTTTTTTGGAATTTTTTTTTTGACGCTCAGTAATGTGACGATAGCTGAAAACTGTACGATAAACGGTACGCTGAGGGCGGAAAAAATCGTCGGGGACATTGTAAAGGCGGCGAGCGCGGCTTTTCCGCGCCAGCGTGAAAGCAGTGTGGACTGGCCGTCAGGTACCCGTACTGTCACCGTGACCGATGACCATCCTTTTGATCGCCAGATAGTGGTGCTTCCGCTGACGTTTCGCGGAAGTAAGCGTACTGTCAGCGGCAGGACAACGTATTCGATGTGTTATCTGAAAGTACTGATGAACGGTGCGGTGATTTATGATGGCGCGGCGAACGAGGCGGTACAGGTGTTCTCCCGTATTGTTGACATGCCAGCGGGTCGGGGAAACGTGATCCTGACGTTCACGCTTACGTCCACACGGCATTCGGCAGATATTCCGCCGTATACGTTTGCCAGCGATGTGCAGGTTATGGTGATTAAGAAACAGGCGCTGGGCATCAGCGTGGTCTGAGTGTGAAAAAAAAGGTACCAAAAAAAACATCGTCGTGAGTAGTGAACCGTAAGC [iSpC3-spacer DNA strand of Example 9]
- activity on this sequence [1]: 20%
- activity on this sequence [2]: 5%
